Reference: patent US12029796B2, “Fluorescent probes for silver ION detection” (THE HONG KONG UNIVERSITY OF SCIENCE AND TECHNOLOGY, priority 2017, dated 2024)

Assay: Fluorescence turn-on sensing and titration of silver ions
Settings: for Emission: probe 5 μM in DI-water with Ag^+, excitation 345 nm; for maximum emission wavelength of silver-containing fluorescent solution: with silver ions
Excerpt: The turn-on fluorescence response was instant. The detection of silver ions was highly sensitive and sharp intensity changes could be detected with the naked eye. DLS (Dynamic light scattering) measurement confirmed the formation of nanoparticles. […] This is likely due to the reduction of silver-tetrazole complexes by the strong electron-beam during TEM studies. These emissive silver-compound solid complexes are hardly soluble in a range of solvents, including DMSO, methanol, and water. NMR analysis of these complexes is not possible. The complexes are also resistant to acid/base treatment, or heating by a heat-gun.
In fluorescence spectroscopy, solutions containing silver ions behaved quite differently from solutions without silver ions in terms of intensity, with the ratio of intensity at maximum peak at 504 nm exceeding 400 times (FIGS. 3A-3D). […] By plotting the intensity of maximum intensive peaks against the ratio of ion concentrations, it was expected that the working curve for the quantitative detection of silver ions could be established. […] Meanwhile, the detection limit (LOD) of silver ions is estimated to be 40 nM (S/N=3 and n=11). With a further increase of [Ag^+], the intensity reaches a plateau.
Tetrazole-tagged AIE luminogen TPE-4TTZ (5 μM) undergoes a fluorescence turn-on response towards a solution of silver ions. The solutions can include organic solutions, aqueous solutions including natural water, wastes and/or biological buffer solutions. PL spectra were recorded on a Perkin-Elmer LS 55 spectrofluorometer.
The solutions included organic solutions, aqueous solutions including natural water, wastes and/or biological buffer solutions. For the same probes, the calibration curve varied a little in different solutions. UV spectra were measured on a Biochrom Libra S80PC double beams spectrometer. PL spectra were recorded on a Perkin-Elmer LS 55 spectrofluorometer.

Compound | Emission [nm] | maximum emission wavelength of silver-containing fluorescent solution [nm]
c1ccc(C(=C(c2ccccc2)c2ccc(-c3nnn[nH]3)cc2)c2ccccc2)cc1 [TPE-1TTZ] | 490 | 490
c1ccc(C(=C(c2ccc(-c3nnn[nH]3)cc2)c2ccc(-c3nnn[nH]3)cc2)c2ccccc2)cc1 [TPE-2TTZ] | 489 | 489
c1cc(-c2nnn[nH]2)ccc1C(=C(c1ccc(-c2nnn[nH]2)cc1)c1ccc(-c2nnn[nH]2)cc1)c1ccc(-c2nnn[nH]2)cc1 [TPE-4TTZ] | 504 | 
